Source: the supplement of paper PMC10849652
Some of the results follow.

Sequences of proteins named here, by UniProt entry; tags and fusion partners are left off. A change or cut given only in a name is not applied to a line headed by its entry.
UniProt Q9NVA2: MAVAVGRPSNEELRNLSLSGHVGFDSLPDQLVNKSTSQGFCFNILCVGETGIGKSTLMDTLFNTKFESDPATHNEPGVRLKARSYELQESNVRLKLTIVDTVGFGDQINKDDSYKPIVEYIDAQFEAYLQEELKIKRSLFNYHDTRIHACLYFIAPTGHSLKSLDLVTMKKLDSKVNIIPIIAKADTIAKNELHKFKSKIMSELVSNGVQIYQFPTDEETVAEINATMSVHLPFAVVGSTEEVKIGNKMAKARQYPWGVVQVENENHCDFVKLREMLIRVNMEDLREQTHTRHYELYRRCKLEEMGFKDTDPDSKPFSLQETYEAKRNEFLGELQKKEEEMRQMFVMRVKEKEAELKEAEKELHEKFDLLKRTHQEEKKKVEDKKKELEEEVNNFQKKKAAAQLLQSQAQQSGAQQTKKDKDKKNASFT
UniProt O15127: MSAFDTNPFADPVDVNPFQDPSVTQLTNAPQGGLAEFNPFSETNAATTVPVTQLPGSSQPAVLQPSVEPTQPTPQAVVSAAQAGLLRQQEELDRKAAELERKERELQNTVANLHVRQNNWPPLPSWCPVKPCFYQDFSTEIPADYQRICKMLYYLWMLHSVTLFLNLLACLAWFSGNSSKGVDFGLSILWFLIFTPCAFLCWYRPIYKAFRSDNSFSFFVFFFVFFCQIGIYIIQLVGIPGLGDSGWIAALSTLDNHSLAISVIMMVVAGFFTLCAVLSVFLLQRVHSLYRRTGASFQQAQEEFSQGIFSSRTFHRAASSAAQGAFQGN
UniProt Q9H9S3, whole entry, looked up: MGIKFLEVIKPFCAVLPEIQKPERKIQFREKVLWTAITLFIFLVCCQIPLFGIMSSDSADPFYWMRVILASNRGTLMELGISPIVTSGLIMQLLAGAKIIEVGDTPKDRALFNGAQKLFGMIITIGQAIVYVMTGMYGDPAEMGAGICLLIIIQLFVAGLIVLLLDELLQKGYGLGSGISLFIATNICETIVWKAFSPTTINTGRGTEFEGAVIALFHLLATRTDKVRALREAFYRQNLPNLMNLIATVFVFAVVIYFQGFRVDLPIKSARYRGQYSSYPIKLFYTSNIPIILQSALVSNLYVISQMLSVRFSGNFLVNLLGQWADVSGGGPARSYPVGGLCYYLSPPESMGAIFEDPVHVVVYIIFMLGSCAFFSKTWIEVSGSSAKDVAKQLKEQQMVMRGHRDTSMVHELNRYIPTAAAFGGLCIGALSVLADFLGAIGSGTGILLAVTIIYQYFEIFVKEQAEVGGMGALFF
UniProt Q16181: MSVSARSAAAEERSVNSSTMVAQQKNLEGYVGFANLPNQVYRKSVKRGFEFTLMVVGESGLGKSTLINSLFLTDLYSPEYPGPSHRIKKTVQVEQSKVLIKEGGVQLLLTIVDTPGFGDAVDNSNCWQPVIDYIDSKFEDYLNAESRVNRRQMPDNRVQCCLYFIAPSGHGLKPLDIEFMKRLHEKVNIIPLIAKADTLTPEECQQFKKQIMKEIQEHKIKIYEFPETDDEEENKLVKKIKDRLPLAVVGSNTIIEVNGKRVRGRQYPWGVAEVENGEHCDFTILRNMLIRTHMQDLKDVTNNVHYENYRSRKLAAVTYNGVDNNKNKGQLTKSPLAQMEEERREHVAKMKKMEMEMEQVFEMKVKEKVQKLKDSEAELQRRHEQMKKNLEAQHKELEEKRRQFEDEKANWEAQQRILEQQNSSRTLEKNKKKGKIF
UniProt Q99643: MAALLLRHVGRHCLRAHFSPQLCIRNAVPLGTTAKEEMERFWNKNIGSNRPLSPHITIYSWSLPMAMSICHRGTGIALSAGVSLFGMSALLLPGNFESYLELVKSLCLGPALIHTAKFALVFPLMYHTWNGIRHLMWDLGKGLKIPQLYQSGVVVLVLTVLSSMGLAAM
UniProt Q14160: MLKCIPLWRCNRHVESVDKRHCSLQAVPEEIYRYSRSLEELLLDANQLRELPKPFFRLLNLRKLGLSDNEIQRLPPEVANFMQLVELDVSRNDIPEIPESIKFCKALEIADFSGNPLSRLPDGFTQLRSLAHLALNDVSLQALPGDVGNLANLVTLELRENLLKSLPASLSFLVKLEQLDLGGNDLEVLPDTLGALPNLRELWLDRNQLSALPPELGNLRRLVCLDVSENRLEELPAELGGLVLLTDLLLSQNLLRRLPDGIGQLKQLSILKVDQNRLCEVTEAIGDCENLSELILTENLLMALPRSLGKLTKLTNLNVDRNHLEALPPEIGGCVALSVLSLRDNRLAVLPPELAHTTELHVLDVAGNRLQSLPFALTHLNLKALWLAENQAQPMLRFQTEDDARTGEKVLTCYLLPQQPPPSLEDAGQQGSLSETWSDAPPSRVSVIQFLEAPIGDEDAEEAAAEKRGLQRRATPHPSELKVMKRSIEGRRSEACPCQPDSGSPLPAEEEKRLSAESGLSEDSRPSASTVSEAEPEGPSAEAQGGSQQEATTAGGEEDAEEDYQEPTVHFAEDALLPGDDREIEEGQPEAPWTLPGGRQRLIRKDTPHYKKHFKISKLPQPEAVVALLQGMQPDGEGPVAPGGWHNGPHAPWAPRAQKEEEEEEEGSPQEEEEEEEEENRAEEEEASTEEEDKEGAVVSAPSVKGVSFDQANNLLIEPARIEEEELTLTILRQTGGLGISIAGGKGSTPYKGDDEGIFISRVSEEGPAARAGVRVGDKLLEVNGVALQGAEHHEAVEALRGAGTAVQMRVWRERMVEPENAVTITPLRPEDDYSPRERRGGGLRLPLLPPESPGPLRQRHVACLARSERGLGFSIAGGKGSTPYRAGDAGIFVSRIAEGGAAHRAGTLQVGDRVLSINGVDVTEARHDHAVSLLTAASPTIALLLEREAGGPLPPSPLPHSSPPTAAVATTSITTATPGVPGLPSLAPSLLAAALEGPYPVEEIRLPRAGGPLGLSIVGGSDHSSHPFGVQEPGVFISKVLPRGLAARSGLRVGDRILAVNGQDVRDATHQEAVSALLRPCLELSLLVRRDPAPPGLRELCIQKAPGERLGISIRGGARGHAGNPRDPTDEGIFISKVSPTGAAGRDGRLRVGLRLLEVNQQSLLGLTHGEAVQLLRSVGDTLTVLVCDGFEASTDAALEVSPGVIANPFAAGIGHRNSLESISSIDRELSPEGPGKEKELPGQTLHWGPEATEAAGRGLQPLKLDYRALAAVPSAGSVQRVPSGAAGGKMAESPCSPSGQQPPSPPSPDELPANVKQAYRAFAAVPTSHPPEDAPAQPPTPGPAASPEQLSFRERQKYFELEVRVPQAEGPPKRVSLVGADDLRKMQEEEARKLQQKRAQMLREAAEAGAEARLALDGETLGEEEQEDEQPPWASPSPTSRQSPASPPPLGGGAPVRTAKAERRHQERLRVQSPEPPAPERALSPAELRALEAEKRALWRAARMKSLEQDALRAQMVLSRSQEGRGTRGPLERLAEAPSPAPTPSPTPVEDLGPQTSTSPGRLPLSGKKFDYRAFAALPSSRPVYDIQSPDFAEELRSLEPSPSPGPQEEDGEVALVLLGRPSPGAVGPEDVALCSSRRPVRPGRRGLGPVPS
UniProt Q9Y6D0, whole entry, looked up: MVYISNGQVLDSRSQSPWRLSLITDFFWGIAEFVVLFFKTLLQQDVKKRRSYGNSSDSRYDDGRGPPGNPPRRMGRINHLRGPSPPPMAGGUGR
UniProt Q96IW7: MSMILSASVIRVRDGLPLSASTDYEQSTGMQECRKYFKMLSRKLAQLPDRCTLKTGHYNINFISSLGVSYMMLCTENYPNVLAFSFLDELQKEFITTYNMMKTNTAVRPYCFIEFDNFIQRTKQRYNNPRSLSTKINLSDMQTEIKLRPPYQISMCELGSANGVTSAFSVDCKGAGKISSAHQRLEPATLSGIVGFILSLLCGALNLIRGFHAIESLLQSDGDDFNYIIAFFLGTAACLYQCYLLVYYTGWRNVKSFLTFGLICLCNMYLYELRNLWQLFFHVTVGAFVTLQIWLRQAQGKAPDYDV
UniProt Q9H0E3: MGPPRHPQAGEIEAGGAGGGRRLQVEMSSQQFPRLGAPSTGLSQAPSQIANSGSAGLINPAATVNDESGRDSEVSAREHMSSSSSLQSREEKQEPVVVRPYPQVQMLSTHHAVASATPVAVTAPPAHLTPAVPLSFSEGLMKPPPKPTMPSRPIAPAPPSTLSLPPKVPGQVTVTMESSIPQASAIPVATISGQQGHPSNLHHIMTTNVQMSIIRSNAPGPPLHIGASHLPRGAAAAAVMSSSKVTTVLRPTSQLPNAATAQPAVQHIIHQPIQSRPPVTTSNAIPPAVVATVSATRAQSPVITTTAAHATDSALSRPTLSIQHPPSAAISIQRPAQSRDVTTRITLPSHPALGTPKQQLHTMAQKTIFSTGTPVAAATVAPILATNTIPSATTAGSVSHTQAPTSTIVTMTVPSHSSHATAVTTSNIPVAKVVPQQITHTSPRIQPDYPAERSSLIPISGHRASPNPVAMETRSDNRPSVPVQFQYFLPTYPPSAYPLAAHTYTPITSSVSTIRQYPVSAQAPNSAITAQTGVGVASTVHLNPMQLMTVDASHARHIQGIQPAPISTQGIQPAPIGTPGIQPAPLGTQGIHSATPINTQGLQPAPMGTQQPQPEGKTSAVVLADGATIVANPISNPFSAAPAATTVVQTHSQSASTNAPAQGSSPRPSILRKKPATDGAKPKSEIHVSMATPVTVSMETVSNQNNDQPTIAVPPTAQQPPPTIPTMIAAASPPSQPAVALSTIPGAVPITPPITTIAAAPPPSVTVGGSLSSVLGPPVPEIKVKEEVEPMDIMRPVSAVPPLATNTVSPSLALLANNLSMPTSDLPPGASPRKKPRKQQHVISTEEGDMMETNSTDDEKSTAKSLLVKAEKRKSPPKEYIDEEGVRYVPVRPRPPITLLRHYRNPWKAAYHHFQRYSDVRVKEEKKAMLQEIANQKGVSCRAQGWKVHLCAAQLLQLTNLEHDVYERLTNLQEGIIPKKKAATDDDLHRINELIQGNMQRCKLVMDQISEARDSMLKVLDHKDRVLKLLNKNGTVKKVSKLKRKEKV
UniProt Q9NRG7: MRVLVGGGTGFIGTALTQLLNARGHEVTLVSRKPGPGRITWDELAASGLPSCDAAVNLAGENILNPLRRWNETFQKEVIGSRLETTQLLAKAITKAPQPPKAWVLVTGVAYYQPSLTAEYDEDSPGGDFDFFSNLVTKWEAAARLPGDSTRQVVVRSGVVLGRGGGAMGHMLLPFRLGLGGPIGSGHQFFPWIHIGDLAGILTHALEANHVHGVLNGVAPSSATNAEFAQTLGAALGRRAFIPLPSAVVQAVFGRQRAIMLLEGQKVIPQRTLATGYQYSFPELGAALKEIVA
UniProt Q92503: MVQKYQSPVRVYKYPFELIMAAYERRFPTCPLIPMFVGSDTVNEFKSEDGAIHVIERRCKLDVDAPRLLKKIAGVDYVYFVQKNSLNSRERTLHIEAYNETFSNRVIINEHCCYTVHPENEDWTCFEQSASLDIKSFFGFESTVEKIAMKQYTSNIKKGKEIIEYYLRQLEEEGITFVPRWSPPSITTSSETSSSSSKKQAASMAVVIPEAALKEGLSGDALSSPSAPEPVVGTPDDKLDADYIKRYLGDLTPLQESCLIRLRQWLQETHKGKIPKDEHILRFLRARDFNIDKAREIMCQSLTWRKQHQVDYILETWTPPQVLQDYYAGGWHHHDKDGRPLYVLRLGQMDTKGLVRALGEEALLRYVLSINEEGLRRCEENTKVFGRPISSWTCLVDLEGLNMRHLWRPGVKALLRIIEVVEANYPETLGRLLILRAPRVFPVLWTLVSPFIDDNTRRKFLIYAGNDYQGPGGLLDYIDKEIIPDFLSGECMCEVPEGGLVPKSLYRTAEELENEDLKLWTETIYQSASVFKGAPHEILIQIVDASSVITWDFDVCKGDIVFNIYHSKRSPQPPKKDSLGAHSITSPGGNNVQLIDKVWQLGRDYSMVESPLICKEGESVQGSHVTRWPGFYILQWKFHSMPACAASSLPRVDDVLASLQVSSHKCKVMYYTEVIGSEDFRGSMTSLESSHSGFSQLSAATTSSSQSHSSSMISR

Experiments:
Assay in all cases: log2 fold change, soluble protein after heating vs DMSO (PISA); higher = thermal stabilisation; K562 lysate, 10 uM; active = over 0.2 and 3.5 SD of the protein, either way, in both replicates (recomputed)
[1] = compound: CCCS(=O)(=O)Nc1ccc(F)c(C(=O)c2c[nH]c3ncc(-c4ccc(Cl)cc4)cc23)c1F [vemurafenib]
How it was run: (§1)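 The values are log-two fold changes in thermal stability compared with solvent controls and come from duplicates. They were obtained by TMTpro 16plex LC-MS/MS, with channel sums equalised, on the supernatant after 21,000xg for 90 min. That supernatant came from crude K562 extract at 1 mg/mL protein treated with 10 μM compound for 30 min, heated for 3 min across 48°C-58°C, pooled and brought to 0.5% NP-40 at 4°C.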

[2] = compound: CCCS(=O)(=O)Nc1ccc(F)c(C(=O)c2c[nH]c3ncc(Cl)cc23)c1F
How it was run: as §1

[3] = compound: CCN(CCCOc1ccc2c(Nc3cc(CC(=O)Nc4cccc(F)c4)[nH]n3)ncnc2c1)CCOP(=O)(O)O [barasertib]
How it was run: as §1

[4] = compound: CC[C@@H]1C(=O)N(C)c2cnc(Nc3ccc(C(=O)NC4CCN(C)CC4)cc3OC)nc2N1C1CCCC1
How it was run: as §1

[5] = compound: CC[C@@H]1C(=O)N(C)c2cnc(Nc3ccc(C(=O)N[C@H]4CC[C@H](N5CCN(CC6CC6)CC5)CC4)cc3OC)nc2N1C(C)C [volasertib]
How it was run: as §1

[6] = compound: CCn1c(C(=O)N(C2CC2)C2CC2)cc2c3c(ncn3C)c(Nc3cc(C)n(C)n3)nc21
How it was run: as §1

[7] = compound: CCn1cc(-c2ccnc3[nH]c(-c4cccc(CN(C)C)c4)cc23)c(-c2ccc(NC(=O)N(C)C)cc2)n1
How it was run: as §1

[8] = compound: CN1CCC(CNc2ccc3ncc(-c4cccc(OC(F)(F)F)c4)n3n2)CC1
How it was run: as §1

[9] = compound: CN1CCN(CCOc2cc(OC3CCOCC3)c3c(Nc4c(Cl)ccc5c4OCO5)ncnc3c2)CC1 [saracatinib]
How it was run: as §1

[10] = compound: CN1CCN(c2nc(C3=C(c4c[nH]c5ccccc45)C(=O)NC3=O)c3ccccc3n2)CC1 [sotrastaurin]
How it was run: as §1

[11] = compound: CN1CC[C@H](c2c(O)cc(O)c3c(=O)cc(-c4ccccc4Cl)oc23)[C@H](O)C1 [alvocidib]
How it was run: as §1

[12] = compound: CN1CCc2c(c3ccccc3n2Cc2ccc(C(=O)NO)cc2)C1 [Tubastatin A]
How it was run: as §1

[13] = compound: CNC(=O)C1=CC=CC=C1NC2=NC(=NC=C2Cl)NC3=C(C=C(C=C3)N4CCOCC4)OC
How it was run: as §1

[14] = compound: CNC(=O)c1ccc(Nc2ncc(C(F)(F)F)c(NCc3nccnc3N(C)S(C)(=O)=O)n2)cc1 [defactinib]
How it was run: as §1

[15] = compound: CNc1nc(-c2ccc3c(N)n[nH]c3c2)cc(N2C[C@@H](C(=O)NC3CCCCC3)CC[C@H]2C)n1
How it was run: as §1

[16] = compound: COC(=O)N[C@@H](C)CNc1nccc(-c2cn(C(C)C)nc2-c2cc(Cl)cc(NS(C)(=O)=O)c2F)n1 [encorafenib]
How it was run: as §1

[17] = compound: COC(=O)[C@H](CCSC)NC(=O)C1=C(C=C(C=C1)NC[C@H](CS)N)C2=CC=CC=C2
How it was run: as §1

[18] = compound: COc1cc(Nc2ncc3c(n2)-c2ccc(Cl)cc2C(c2c(F)cccc2OC)=NC3)ccc1C(=O)O [alisertib]
How it was run: as §1

[19] = compound: COc1cc2nc(-c3cc(F)ccc3O)nc(N[C@@H]3CNC[C@H]3C(C)(C)O)c2cc1OC
How it was run: as §1

[20] = compound: COc1cc2ncnc(Nc3ccc(F)c(Cl)c3)c2cc1OCCCN1CCOCC1 [gefitinib]
How it was run: as §1

Measured: log2 fold change

SEPTIN11 isoform 2 (UniProt Q9NVA2)
inactive: [1] -0.004 | [2] -0.023 | [3] -0.05 | [4] 0.018 | [5] 0.018 | [6] -0.016 | [7] -0.009 | [8] -0.001 | [9] 0.001 | [10] 0.007 | [11] -0.007 | [12] 0.04 | [13] -0.015 | [14] 0 | [15] 0.007 | [16] -0.018 | [17] -0.012 | [18] 0 | [19] -0.006 | [20] -0.012

SCAMP2 (UniProt O15127)
inactive: [1] -0.054 | [2] 0.004 | [3] 0.057 | [4] -0.016 | [5] -0.023 | [6] -0.067 | [7] 0.014 | [8] 0.053 | [9] 0.01 | [10] -0.014 | [11] -0.069 | [12] 0.106 | [13] 0.025 | [14] 0.026 | [15] 0.003 | [16] 0.011 | [17] -0.093 | [18] -0.094 | [19] 0.07 | [20] -0.019

SEC61A2 (UniProt Q9H9S3)
inactive: [1] -0.004 | [2] -0.028 | [3] 0.008 | [4] 0.023 | [5] 0.028 | [6] 0.018 | [7] -0.182 | [8] 0.047 | [9] -0.01 | [10] 0.049 | [11] -0.066 | [12] 0.023 | [13] -0.006 | [14] -0.004 | [15] 0.087 | [16] 0.064 | [17] -0.049 | [18] -0.041 | [19] 0.08 | [20] 0.05

SEPTIN7 (UniProt Q16181)
inactive: [1] -0.021 | [2] -0.022 | [3] -0.014 | [4] 0 | [5] 0.01 | [6] -0.004 | [7] 0.126 | [8] -0.063 | [9] -0.015 | [10] 0.025 | [11] 0.036 | [12] 0.044 | [13] 0 | [14] -0.008 | [15] -0.013 | [16] -0.018 | [17] 0.02 | [18] -0.013 | [19] -0.004 | [20] 0.013

SDHC (UniProt Q99643)
active: [7] -0.307
inactive: [1] -0.035 | [2] -0.022 | [3] 0.031 | [4] -0.089 | [5] 0.044 | [6] 0.04 | [8] 0.156 | [9] 0.063 | [10] 0.062 | [11] -0.114 | [12] -0.056 | [13] 0.047 | [14] 0.146 | [15] 0.097 | [16] 0.034 | [17] 0.055 | [18] 0.018 | [19] -0.007 | [20] 0.011

SCRIB (UniProt Q14160)
inactive: [1] 0.023 | [2] -0.007 | [3] 0.006 | [4] -0.039 | [5] -0.019 | [6] 0 | [7] -0.049 | [8] -0.027 | [9] 0.027 | [10] 0.011 | [11] -0.013 | [12] -0.131 | [13] 0 | [14] 0 | [15] 0.007 | [16] 0.014 | [17] 0.116 | [18] 0.006 | [19] 0.028 | [20] 0.03

SELENOK (UniProt Q9Y6D0)
active: [8] 0.529
inactive: [1] -0.034 | [2] -0.004 | [3] -0.022 | [5] 0.062 | [7] -0.593 | [9] -0.021 | [11] -0.169 | [14] 0.123 | [15] -0.001 | [18] -0.018 | [19] -0.025 | [20] 0.006

SEC22A (UniProt Q96IW7)
inactive: [2] 0.022 | [3] 0.133 | [5] -0.048 | [6] 0.033 | [10] 0.078 | [12] -0.044 | [18] -0.424 | [19] -0.123 | [20] 0

SAP130 isoform 3 (UniProt Q9H0E3)
inactive: [1] 0.018 | [2] 0.01 | [4] 0.059 | [5] 0.032 | [6] 0.046 | [7] -0.082 | [8] -0.038 | [9] 0.042 | [10] -0.007 | [11] -0.05 | [12] 0.058 | [13] 0.146 | [14] -0.044 | [15] 0.003 | [16] 0.06 | [17] 0.041 | [19] -0.01

SDHB, A0A087WXX8
inactive: [1] 0.128 | [7] -0.047 | [8] 0.053 | [11] -0.076 | [14] 0.005 | [18] 0.24 | [20] 0.15

SDR39U1 (UniProt Q9NRG7)
inactive: [2] -0.025 | [3] -0.089 | [5] -0.24 | [6] -0.028 | [7] -0.058 | [8] -0.124 | [11] -0.099 | [12] -0.043 | [13] 0.165 | [18] 0.114 | [19] -0.243 | [20] -0.099

SEC14L1 isoform 2 (UniProt Q92503)
inactive: [1] 0.317 | [2] 0.046 | [5] -0.111 | [14] -0.075 | [19] 0.17

SEC31A (UniProt H0YAB3)
inactive: [2] -0.036 | [3] -0.037 | [5] -0.026 | [6] -0.039 | [7] -0.025 | [8] 0.028 | [9] 0.004 | [11] -0.031 | [12] 0.006 | [13] -0.093 | [15] -0.011 | [18] -0.1 | [19] -0.097 | [20] -0.023
